Square brackets hold non-standard residues; d marks the D form. * marks the point of attachment. Fmoc = O=C(OCC1c2ccccc2-c2ccccc21)*; Cbz = O=C(OCc1ccccc1)*; Boc = CC(C)(C)OC(=O)*; Aib = CC(C)(N)C(=O)O; OtBu = CC(C)(C)O*; tBu = CC(C)(C)*
Experiment: solution-phase peptide synthesis; wscHCl/HOBt with TBAF (Procedure II(1)); TMS-OTf/MABR then Fmoc-amino acid chlor
Details: whole synthesis, scale 0.250 mmol

Substance | isolated yield [%]
Cbz-AMAS(tBu)AA-OtBu | 32

Experiment: general procedure: solution-phase peptide synthesis; wscHCl/HOBt with TBAF (Procedure II(1)); TMS-OTf/MABR then Fmoc-amino acid chlor
Details: whole synthesis, scale 0.250 mmol

Substance | isolated mass [mg] | isolated yield [%]
Cbz-AAAA-OtBu | 101 | 82
Cbz-AAAE(OtBu)-OtBu | 92.5 | 61
Cbz-AAAM-OtBu | 84.2 | 61
Cbz-AMAS(tBu)AA-OtBu | 50.5 | 
Cbz-K(Boc)AAA-OtBu | 131 | 81
Cbz-MAAA-OtBu | 93.9 | 68
Cbz-S(tBu)AAA-OtBu | 109 | 77
Cbz-W(Boc)AAA-OtBu | 120 | 68
Cbz-[Aib]GAAA-OtBu | 77.5 | 55
Fmoc-AAAA-OtBu [listing 1 of 2 here] | 88.5 | 61
Fmoc-AAAA-OtBu [listing 2 of 2 here] | 118 | 81
Fmoc-MAAA-OtBu | 99.2 | 62
Fmoc-VAAA-OtBu | 80.6 | 53
